Results as given in PubChem BioAssay AID540276 (National Center for Advancing Translational Sciences (NCATS), 2011).
Out of some 300,000 compounds screened, about 5,400 (1.8%) were called active. Inconclusive means that the source gave no clear call. Such entries were picked first, then a sample of the others. Calls follow the shape of the full dose curve; tested in HEK293 cells. Potencies beside an inconclusive call are fits to weak or partial responses and may not hold up.

test: qHTS for inhibitors of binding or entry into cells for Marburg Virus; conditions: Marburg virus pseudotyped entry inhibition, cell reporter; series mostly up to 37.8 µM
Potency is read from the fitted curve at half-maximal effect.

Row | Structure (SMILES) | Potency
1 | Cc1ccccc1N1C(=O)NC(=O)/C(=C/c2ccc(N3CCOCC3)o2)C1=O | inconclusive: 6.31 µM [activator, single point]
2 | Cc1ccc(NS(=O)(=O)c2ccc(C(=O)NCCCN3CCCC3=O)cc2)cc1C | inconclusive: 2.51 µM [inhibitor, full curve]
3 | COc1cccc2cc(-c3nc(-c4cccs4)cs3)c(=O)oc12 | inconclusive: 6.51 µM [activator, single point]
4 | CCN(CC)S(=O)(=O)c1ccc2[nH]cc(C(=O)NCCc3ccccc3)c(=O)c2c1 | inconclusive: 35.5 µM [inhibitor, single point]
5 | CCN(Cc1ccccc1)C(=O)c1ccc2c(=O)n3c(nc2c1)CCC3 | inconclusive: 22.4 µM [inhibitor, partial curve, poor fit]
6 | COc1ccc(N2CCN(C(c3cccs3)c3nnnn3C3CCCC3)CC2)cc1 (stereo unspecified) | inconclusive: 6.51 µM [inhibitor, partial curve, poor fit]
7 | COc1ccccc1N(CC(=O)NCCSc1ccccc1)S(C)(=O)=O | inconclusive: 29.1 µM [activator, single point]
8 | COc1ccc(C(=O)NC2CC(C)(C)Cc3c2cnn3-c2ccccc2)c(OC)c1 (stereo unspecified) | inconclusive: 10 µM [inhibitor, partial curve]
9 | CC(C)CNc1nc(NC(C)(C)C)nc(Oc2ccc(=O)[nH]n2)n1 | inconclusive: 35.5 µM [inhibitor, single point]
10 | CN(Cc1cccc(-n2cccn2)c1)Cc1cn(C)nc1-c1ccccc1F | inconclusive: 35.5 µM [inhibitor, single point]
11 | Cc1ccc(C(=O)OCC(=O)NNC(=O)c2ccc([N+](=O)[O-])cc2)o1 | inconclusive: 7.94 µM [activator, partial curve, poor fit]
12 | CCCN(CCC)CC(O)COc1ccccc1C(=O)Nc1ccccc1 (stereo unspecified) | inconclusive: 11.2 µM [inhibitor, partial curve]
13 | CCCCN1C[C@H](CSC)[C@@H](CC(=O)Nc2ccc(Br)cc2)C1=O | inconclusive: 0.0995 µM [inhibitor, full curve, poor fit]
14 | Cc1cc2ccccc2c(=O)n1CC(=O)NCC(=O)N1CCCC(C)C1 (stereo unspecified) | inconclusive: 0.92 µM [activator, full curve, poor fit]
15 | Cc1cccc(-c2nc(CN3CCCC(C(=O)NC4CCCCCC4)C3)c(C)o2)c1 (stereo unspecified) | inconclusive: 29.1 µM [inhibitor, single point]
16 | Cc1noc(C)c1CSc1ccccc1C(=O)N1CCN(c2ccccc2)CC1 | inactive

From no. 10 as far as 11, copied from above:
Row | Structure (SMILES) | Potency
10 | CN(Cc1cccc(-n2cccn2)c1)Cc1cn(C)nc1-c1ccccc1F | inconclusive: 35.5 µM [inhibitor, single point]
11 | Cc1ccc(C(=O)OCC(=O)NNC(=O)c2ccc([N+](=O)[O-])cc2)o1 | inconclusive: 7.94 µM [activator, partial curve, poor fit]
